Measurements as given in article doi:10.1101/2024.07.30.605880.
No constants are given. Whether binding was seen depends on the method and setting. Some entries that bind do so weakly or less than the wild type.

Protein sequences, listed by entry. Tags and fused reporters are not part of them. Residues count along the entry.
UniProt P26718, residues 73-216: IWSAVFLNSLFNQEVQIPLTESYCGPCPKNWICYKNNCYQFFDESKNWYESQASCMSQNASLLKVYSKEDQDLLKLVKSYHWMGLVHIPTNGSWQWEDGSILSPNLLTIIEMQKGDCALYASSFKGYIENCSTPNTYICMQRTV

Target: T1, human MICA expressed on MC38 cells (human) (UniProt Q29983)
T1 sequence: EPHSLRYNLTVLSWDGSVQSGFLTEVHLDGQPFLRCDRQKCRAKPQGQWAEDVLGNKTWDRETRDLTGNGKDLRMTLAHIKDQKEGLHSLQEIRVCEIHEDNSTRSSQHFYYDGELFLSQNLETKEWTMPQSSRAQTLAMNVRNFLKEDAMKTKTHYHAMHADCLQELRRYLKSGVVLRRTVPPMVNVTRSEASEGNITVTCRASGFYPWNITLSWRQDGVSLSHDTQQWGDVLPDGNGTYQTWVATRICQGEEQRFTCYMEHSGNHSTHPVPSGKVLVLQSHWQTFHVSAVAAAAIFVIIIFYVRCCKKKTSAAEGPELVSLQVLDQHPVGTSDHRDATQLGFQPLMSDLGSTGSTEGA
Test: flow cytometry on cells

binding: binds
Substance: NKG2D-Fc (from UniProt P26718 73-216) (Fc fusion)
